Measured values published in US9271974B2, “Use of oxycodone for treating visceral pain” (PURDUE PHARMA L.P., priority 2005, dated 2016).

Tested on: cutaneous pain
Test: Experimental cutaneous pain (pressure, electrical, thermal stimuli on skin) in healthy volunteers
Format: in vivo, human
Conditions: oral solution, morphine 30 mg, oxycodone 15 mg, FIG. 1
From the text: The experimental studies referred to below, are based on a comparison of different drugs at healthy volunteers by applying experimental pain, since clinical studies provide insufficient information, partly due to the great difference that exists between patients and partly due to the fact that most diseases produce many symptoms other than pain, which affects the assessment of pain-killing efficacy. Experimental pain can be administered under controlled conditions in healthy volunteers so that this bias can be avoided. However, several experimental stimuli are necessary to simulate the complex clinical situation. It is also necessary to use different opioids to obtain sufficient differentiated knowledge about deep pain on different pain mechanisms, and an assessment of the clinical action spectrum of opioids. For testing the efficacy of different opioids for treating visceral pain a standardized test battery of cutaneous, muscular and visceral stimuli was applied. Blood samples were taken for determination of the opioid concentration in plasma.
In recent years methods by which deep and visceral stimuli can be administered reproducibly have been developed. These methods allow activation of the pain system with different stimuli, with the possibility of activating various types of nerve pathways in the same experiment. […]

**Q.** Which “analgesic effect in the skin versus placebo” value does the source give for `CN1CC[C@]23c4c5ccc(O)c4O[C@H]2[C@@H](O)C=C[C@H]3[C@H]1C5` [morphine] here?
**A.** The value was “significantly more analgesic than placebo”.
